These are yes or no findings as the source states them, for the method shown. For some assays here: In cells and extracts the contact can be indirect. Some entries that bind do so weakly or less than the wild type. Tags and fused reporters may be left off the sequences shown.
Key:
[1] = target: AtFT (Arabidopsis FLOWERING LOCUS T), yeast two-hybrid fusion (Arabidopsis), Q9SXZ2; test: two-hybrid; directed test of pairs in yeast (Fig 7B): FT proteins against pAD:PaFD, its deletion and point mutants; AtFT with AtFD as positive control; settings: remark: other sources report otherwise
[2] = target: AtFT, BiFC fusion expressed in Arabidopsis cells (Arabidopsis), Q9SXZ2; test: split reporter; BiFC with split YFP in Arabidopsis leaf cells after particle bombardment; fluorescence intensity of nuclei compared; settings: remark: other sources report otherwise

| binding [1] | binding [2] | Binder |
| --- | --- | --- |
| binds |  | AtFD, yeast two-hybrid fusion, Q84JK2 1-285 (protein) MLSSAKHQRNHRLSATNKNQTLTKVSSISSSSPSSSSSSSSTSSSSPLPSQDSQAQKRSLVTMEEVWNDINLASIHHLNRHSPHPQHNHEPRFRGQNHHNQNPNSIFQDFLKGSLNQEPAPTSQTTGSAPNGDSTTVTVLYSSPFPPPATVLSLNSGAGFEFLDNQDPLVTSNSNLHTHHHLSNAHAFNTSFEALVPSSSFGKKRGQDSNEGSGNRRHKRMIKNRESAARSRARKQAYTNELELEVAHLQAENARLKRQQDQLKMAAAIQQPKKNTLQRSSTAPF |
|  | binds | AtFD, BiFC fusion expressed in Arabidopsis cells, Q84JK2 1-285 (protein) MLSSAKHQRNHRLSATNKNQTLTKVSSISSSSPSSSSSSSSTSSSSPLPSQDSQAQKRSLVTMEEVWNDINLASIHHLNRHSPHPQHNHEPRFRGQNHHNQNPNSIFQDFLKGSLNQEPAPTSQTTGSAPNGDSTTVTVLYSSPFPPPATVLSLNSGAGFEFLDNQDPLVTSNSNLHTHHHLSNAHAFNTSFEALVPSSSFGKKRGQDSNEGSGNRRHKRMIKNRESAARSRARKQAYTNELELEVAHLQAENARLKRQQDQLKMAAAIQQPKKNTLQRSSTAPF |

— publication PMC4552788
